No constants are given. Whether binding was seen depends on the method and setting. Binding seen in cells or lysates may run through a third protein. These calls come from enrichment with a bait or labelling near it, and not all partners need be listed.
Target: NLRP3 (mouse (endogenous in BMDM)) (UniProt Q8R4B8)
Assay: affinity purification with mass spectrometry; immune complexes precipitated by NLRP3 specific antibody from BMDMs of WT or NLRP3-KO mice, analysed by mass spectrometry

The chains behind the UniProt entries cited, without tags or fusion partners.
UniProt Q8R4B8: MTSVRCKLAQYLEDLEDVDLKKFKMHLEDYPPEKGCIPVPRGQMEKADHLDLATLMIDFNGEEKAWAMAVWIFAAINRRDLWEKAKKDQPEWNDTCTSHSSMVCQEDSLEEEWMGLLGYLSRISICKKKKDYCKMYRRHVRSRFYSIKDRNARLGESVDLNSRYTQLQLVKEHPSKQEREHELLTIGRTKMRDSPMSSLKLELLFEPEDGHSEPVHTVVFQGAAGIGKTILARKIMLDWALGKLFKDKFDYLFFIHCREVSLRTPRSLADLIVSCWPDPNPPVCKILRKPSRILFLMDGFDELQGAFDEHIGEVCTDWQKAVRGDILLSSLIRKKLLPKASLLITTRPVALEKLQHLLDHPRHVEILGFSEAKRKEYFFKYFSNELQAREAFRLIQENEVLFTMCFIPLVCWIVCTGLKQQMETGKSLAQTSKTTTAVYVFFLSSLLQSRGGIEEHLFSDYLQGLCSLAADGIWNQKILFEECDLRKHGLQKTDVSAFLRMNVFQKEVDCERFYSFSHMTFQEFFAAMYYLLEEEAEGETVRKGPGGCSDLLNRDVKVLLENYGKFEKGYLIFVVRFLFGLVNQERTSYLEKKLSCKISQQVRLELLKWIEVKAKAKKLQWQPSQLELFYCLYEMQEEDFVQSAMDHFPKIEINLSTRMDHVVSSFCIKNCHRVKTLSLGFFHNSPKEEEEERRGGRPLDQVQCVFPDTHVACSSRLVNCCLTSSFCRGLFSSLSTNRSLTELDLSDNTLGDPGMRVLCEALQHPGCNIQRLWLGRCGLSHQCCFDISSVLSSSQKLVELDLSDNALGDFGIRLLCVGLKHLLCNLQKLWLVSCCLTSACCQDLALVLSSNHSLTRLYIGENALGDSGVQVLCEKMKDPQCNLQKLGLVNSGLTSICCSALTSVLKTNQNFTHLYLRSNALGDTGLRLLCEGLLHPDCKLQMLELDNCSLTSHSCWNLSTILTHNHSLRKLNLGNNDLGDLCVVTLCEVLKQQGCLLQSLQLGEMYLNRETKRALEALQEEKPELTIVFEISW
UniProt P18760: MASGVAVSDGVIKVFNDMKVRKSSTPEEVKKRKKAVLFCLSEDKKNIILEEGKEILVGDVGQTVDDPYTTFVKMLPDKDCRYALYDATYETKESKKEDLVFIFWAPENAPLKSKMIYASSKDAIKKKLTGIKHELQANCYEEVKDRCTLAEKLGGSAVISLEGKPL

- binding: binds
Substance: Cofilin-1 (from UniProt P18760 1-166)

— paper PMC7103907
